# Test results published in PubChem BioAssay AID1347075 (National Center for Advancing Translational Sciences (NCATS), 2019).
# The campaign covered roughly 400,000 compounds. About 5,500 (1.4%) were called active. The inconclusive results got no clear call from the source; some entries with a clear call stand among them for comparison. Calls come from the whole dose curve; as a rule, active = well fitted cell-killing curve with a large enough effect; inconclusive = small, poorly fitted or top-dose-only effect, or effect the other way; inactive = flat fitted curve, though single readings scatter. Where the call is inconclusive, the potency comes from a doubtful curve fit.
# Assay: qHTS assay for MDR1-selective chemotherapeutics: Primary screen using the parental adenocarcinoma cell KB-3-1; note: nearly all actives have a fitted effect of over 60% in size
# Conditions: KB-3-1 viability, CellTiter-Glo ATP luminescence, 72 h; activity change, negative = cytotoxic: at 46.1 µM (top of the series)
# How it was run: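 Parental KB-3-1 viability, qHTS format: 72 h compound exposure, 37 °C; CellTiter-Glo; media-only wells and DMSO plates as controls; concentration-effect fits on corrected data.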
# % is set by controls: 0 for no effect and ±100 for the full control effect; potency is the fitted concentration of half-maximal effect.
Structure (SMILES),Potency,"activity change, negative = cytotoxic"
CC(C)c1ccc(C(=O)CC2(O)C(=O)N(CCc3ccccc3)c3ccc(Cl)cc32)cc1 (configuration not stated),"inconclusive: 20.6 µM [cytotoxic, single point]",–
CC(=NC(C)C)C1=C(O)C(C)OC1=O (configuration not stated),inactive,–
CNS(=O)(=O)c1cn(CC(=O)NCc2ccccc2OC)cc1S(=O)(=O)NC,inactive,–
C=CCn1c(SCC(=O)OCC)nc(C(F)(F)F)cc1=O,"inconclusive: 18.4 µM [cytotoxic, single point]",–
COc1cccc(-c2nn(C)c3sc(C(=O)NCCCN(C)Cc4ccccc4)cc23)c1,"inconclusive: 29.1 µM [cytotoxic, partial curve, poor fit]",–
Cc1cccn2c(=O)c3cc(C(=O)NCCN4CCOCC4)c(=N)n(CCCN4CCOCC4)c3nc12,inactive,–
CCC(C)n1c(=N)c(C(=O)NCc2ccco2)cc2c(=O)n3cc(C)ccc3nc21 (configuration not stated),inactive,–
CC(C)(C)CC(=O)Nc1nc(C(N)Cc2ccc(C(F)(F)F)cc2)cs1 (configuration not stated),"inconclusive: 29.1 µM [cytotoxic, single point]",–
COC(=O)CCC(NS(=O)(=O)OCC(Cl)(Cl)Cl)c1ccccc1 (configuration not stated),inactive,–
CCOc1ccc(C(=O)COC(=O)CNC(=O)C2CCCCC2)cc1,–,inconclusive: 44.3%
CCCCN(CCCC)C(=S)N/N=C/c1c(C)[nH]n(-c2ccccc2)c1=O,"inconclusive: 2.59 µM [cytotoxic, full curve, poor fit]",–
CCOc1ccc2[nH]c3c(NCCC(C)C)ncnc3c2c1,"inconclusive: 29.1 µM [cytotoxic, single point]",–
COc1ccc(C2=Nn3c(nnc3-c3ccncc3)SC2)cc1OC,"inconclusive: 18.4 µM [cytotoxic, single point]",–
O=C(CN1CCN(Cc2ccccc2)CC1)NCc1ccc(Cl)cc1,"inconclusive: 29.1 µM [cytotoxic, single point]",–
COc1ccc(S(=O)(=O)N2CCCCC2)cc1NS(=O)(=O)c1ccc(CNC(C)=O)cc1,inactive,–
CCCCc1c(O)c2ccccc2n(CCCC)c1=O,inactive,–
COc1cccc(CNc2nc3cc(-c4cnn(Cc5ccccc5)c4)sc3c(=O)n2C)c1,inactive,–
c1ccc(CCNc2ncnc3sccc23)nc1,"inconclusive: 29.1 µM [cytotoxic, single point]",–
O=C(NCc1ccccc1)c1ccc(CSc2nc3cccnc3n2Cc2ccccc2)cc1,"inconclusive: 16.4 µM [cytotoxic, single point]",–
Cc1ccc(OCCSc2cc(C)nc(N)n2)cc1,"inconclusive: 14.6 µM [cytotoxic, partial curve]",–
CCCN1CCN(C(=O)c2noc3c2COc2ccc(C)cc2-3)CC1,inactive,–
O=C1C2C3c4ccccc4C(c4ccccc43)C2c2nc3ccccc3n21 (configuration not stated),inactive,–
CC(C)c1ccc(CNc2nc(NCC3CC3)nc3ccsc23)cc1,"inconclusive: 29.1 µM [cytotoxic, single point]",–
CCN(CC)S(=O)(=O)c1ccc(N2CCOCC2)c(NS(=O)(=O)c2cc(C(C)(C)C)ccc2C)c1,"inconclusive: 25.9 µM [cytotoxic, single point]",–

# Compounds shown so far with fluorine (2):
Structure (SMILES),Potency,"activity change, negative = cytotoxic"
C=CCn1c(SCC(=O)OCC)nc(C(F)(F)F)cc1=O,"inconclusive: 18.4 µM [cytotoxic, single point]",–
CC(C)(C)CC(=O)Nc1nc(C(N)Cc2ccc(C(F)(F)F)cc2)cs1 (configuration not stated),"inconclusive: 29.1 µM [cytotoxic, single point]",–

# (further entries)

Structure (SMILES),Potency,"activity change, negative = cytotoxic"
Cc1cc(C(=O)N/N=C/c2ccc(N(C)C)cc2)c2ccccc2n1,active: 9.2 µM,–
Cn1c(N)c(C(=O)COC(=O)/C=C/c2ccccc2F)c(=O)n(C)c1=O,"inconclusive: 23.1 µM [rising, single point]",–
CCCCn1nnnc1C(c1ccccc1)N1CCCN(Cc2ccc(F)cc2)CC1 (configuration not stated),"inconclusive: 32.6 µM [cytotoxic, single point]",–
CCOc1cccc(C(=O)NC(=S)Nc2ccccc2)c1,"inconclusive: 23.1 µM [rising, single point]",–
Cc1ccc(NC(=O)CSc2ncnc3ccccc23)cc1S(=O)(=O)N1CCOCC1,inactive,–
O=C(Cc1ccccc1F)NC1CCCc2ccccc21 (configuration not stated),"inconclusive: 29.1 µM [rising, partial curve, poor fit]",–
C(=C\c1ccccc1)/CN1CCN(C(c2ccccc2)c2nnnn2Cc2ccccc2)CC1 (configuration not stated),"inconclusive: 29.1 µM [cytotoxic, single point]",–
CCOC(=O)[C@]12CCCC=C1N(Cc1cccc3ccccc13)C(=O)[C@H](CC(=O)NCc1ccc(C)o1)C2,"inconclusive: 20.6 µM [cytotoxic, single point]",–
COC(=O)c1cn(-c2ccccc2)nc1-c1ccncc1,inactive,–
CCCc1ccc(C(=O)NNc2ccc(F)cc2)cc1,"inconclusive: 18.4 µM [cytotoxic, single point]",–
COc1ccc(-c2c[n+]3c(n2-c2ccccc2)SCC3)cc1,active: 4.11 µM,–
CC1CN(C(=O)/C=C/c2ccc(SC(F)F)cc2)CC(C)O1 (configuration not stated),inactive,–
C=CCNC(=S)NNC(=O)COc1ccc(Cl)cc1Cl,"inconclusive: 20.6 µM [cytotoxic, single point]",–
COc1cccc(N2CCN(C(=O)c3ccc4c(Cl)c5c(nc4c3)CCCC5)CC2)c1,inactive,–
CC1=C(C(=O)OCc2ccccc2)C(c2ccc(N3CCOCC3)cc2)NC(=O)N1 (configuration not stated),inactive,–
CCCCC(=O)NC(Nc1sc2c(c1C(N)=O)CCCC2)(C(=O)OCC)C(F)(F)F (configuration not stated),inactive,–
S=C(Nc1ccc(Nc2ccccc2)cc1)NC1CCCCCC1,"inconclusive: 29.1 µM [cytotoxic, single point]",–
CCOC(=O)c1c(C)[nH]c(C(=O)N/N=C/c2ccc(Br)cc2)c1C,"inconclusive: 0.0052 µM [cytotoxic, full curve, poor fit]",–
COc1cc2c(C(=O)N3CCN(c4cccc(Cl)c4)CC3)cn(CC(C)C)c(=O)c2cc1OC,"inconclusive: 29.1 µM [cytotoxic, single point]",–
CSc1nsc(/C=C/Nc2ccc(O)cc2C)c1C#N,inactive,–
Cc1ccc(C(=O)OCC(=O)N2CCC(Cc3ccccc3)CC2)cc1N,–,inconclusive: -7.9%
O=C(c1nn2c(C(F)(F)F)cc(-c3cccs3)nc2c1Br)N1CCCc2ccccc21,"inconclusive: 29.1 µM [cytotoxic, single point]",–
C=CS(=O)(=O)c1c2cc(OC)ccc2nc2ccc(OC)cc12,"inconclusive: 29.1 µM [cytotoxic, single point]",–
